PubChem BioAssay AID1159578 – Peter MacCallum Cancer Centre – 2015
Shown is an unselected part of about 18,000 reagents. About 1,030 of all reagents (5.7%) count as active. 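Inactive calls also include pools with fewer than 3300 nuclei, whose migration was not assessed.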 Raw values are not corrected between plates. Further read-outs or replicates are left out here. Reagent sequences are not shown.

Assay: 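siRNA pools altering how lymphatic endothelial cells close a scratch wound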 (primary screen)
Cells: human lymphatic endothelial cells
Knock-down reagent: siRNA pool against human genes, 40 nM
Duration: 48 h after transfection
Measurement: 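Cells stained with dye and imaged after a scratch; covered wound area and nuclei counted, duplicates averaged, migration set against mock wells and turned into a robust z-score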
Direction: migration robust z-score: higher = faster migration into the scratch; nuclei per well: higher = more cells in the well
Active means: 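Migration changed when robust z exceeds 2 or falls below -2 and mean nuclei number is at least 3300; otherwise not called changed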
Meaning of the calls: active = migration changed; inactive = no migration change, or too few cells

no.	Gene	migration robust z-score	migration class with cell-count check	nuclei per well, duplicate mean	Outcome
1	GCC2 (GRIP and coiled-coil domain containing 2)	-2.05	migration z below -2; enough cells	5965	active
2	PTPRO (protein tyrosine phosphatase receptor type O)	-0.2	migration z between -2 and 2; enough cells	6638	inactive
3	PRDM14 (PR/SET domain 14)	1.14	migration z between -2 and 2; enough cells	6114	inactive
4	GJB1 (gap junction protein beta 1)	-0.18	migration z between -2 and 2; enough cells	5400	inactive
5	DNAJB5 (DnaJ heat shock protein family (Hsp40) member B5)	-0.46	migration z between -2 and 2; enough cells	5237	inactive
6	PPP1R13L (protein phosphatase 1 regulatory subunit 13 like)	0.14	migration z between -2 and 2; enough cells	5068	inactive
7	GAPT (GRB2 binding adaptor protein, transmembrane)	0.02	migration z between -2 and 2; enough cells	5266	inactive
8	PTGES2 (prostaglandin E synthase 2)	0.29	migration z between -2 and 2; enough cells	6514	inactive
9	BROX (BRO1 domain and CAAX motif containing)	0.66	migration z between -2 and 2; enough cells	6886	inactive
10	FGFBP3 (fibroblast growth factor binding protein 3)	0.55	migration z between -2 and 2; enough cells	5820	inactive
11	OS9 (OS9 endoplasmic reticulum lectin)	-0.12	migration z between -2 and 2; enough cells	7300	inactive
12	CERS5 (ceramide synthase 5)	-0.5	migration z between -2 and 2; enough cells	4274	inactive
13	RPA4 (replication protein A4)	1.44	migration z between -2 and 2; enough cells	5670	inactive
14	AIF1L (allograft inflammatory factor 1 like)	0.88	migration z between -2 and 2; enough cells	5820	inactive
15	RNASEH2A (ribonuclease H2 subunit A)	0.93	migration z between -2 and 2; enough cells	5372	inactive
16	FAM20C (FAM20C golgi associated secretory pathway kinase)	0.44	migration z between -2 and 2; enough cells	5360	inactive
17	MMACHC (metabolism of cobalamin associated C)	-1.92	migration z between -2 and 2; enough cells	4989	inactive
18	ANKRD10 (ankyrin repeat domain 10)	-0.3	migration z between -2 and 2; enough cells	5634	inactive
19	HS6ST3 (heparan sulfate 6-O-sulfotransferase 3)	-0.39	migration z between -2 and 2; enough cells	5867	inactive
20	POU2F1 (POU class 2 homeobox 1)	0.13	migration z between -2 and 2; enough cells	5660	inactive
21	MAGEF1 (MAGE family member F1)	-0.02	migration z between -2 and 2; enough cells	5496	inactive
22	SDCCAG8 (SHH signaling and ciliogenesis regulator SDCCAG8)	-3.11	migration z below -2; enough cells	5112	active
23	GIPR (gastric inhibitory polypeptide receptor)	1.29	migration z between -2 and 2; enough cells	5426	inactive
24	SFTPB (surfactant protein B)	0.22	migration z between -2 and 2; enough cells	5829	inactive
25	HTR7 (5-hydroxytryptamine receptor 7)	-0.68	migration z between -2 and 2; enough cells	5554	inactive
26	GPR32 (G protein-coupled receptor 32)	-0.06	migration z between -2 and 2; enough cells	4818	inactive
27	INTS14 (integrator complex subunit 14)	-2.18	migration z below -2; enough cells	5378	active
28	LSM2	-0.04	migration z between -2 and 2; enough cells	5605	inactive
29	RGS8 (regulator of G protein signaling 8)	0.4	migration z between -2 and 2; enough cells	5321	inactive
30	SLC9B2	-2.89	migration z below -2; enough cells	3699	active
31	LRRC41 (leucine rich repeat containing 41)	-1.32	migration z between -2 and 2; enough cells	6398	inactive
32	ALKBH3 (alkB homolog 3, alpha-ketoglutarate dependent dioxygenase)	-0.41	migration z between -2 and 2; enough cells	6922	inactive
33	TNRC6C (trinucleotide repeat containing adaptor 6C)	-0.92	migration z between -2 and 2; enough cells	4991	inactive
34	P4HB (prolyl 4-hydroxylase subunit beta)	0.32	migration z between -2 and 2; enough cells	5886	inactive
35	ENTPD3 (ectonucleoside triphosphate diphosphohydrolase 3)	-1.43	migration z between -2 and 2; enough cells	5176	inactive
36	GTSE1 (G2 and S-phase expressed 1)	-0.83	migration z between -2 and 2; enough cells	5336	inactive
37	DACT3 (dishevelled binding antagonist of beta catenin 3)	-0.57	migration z between -2 and 2; enough cells	6336	inactive
38	HOXD8 (homeobox D8)	-0.73	migration z between -2 and 2; enough cells	7227	inactive
39	BUB3 (BUB3 mitotic checkpoint protein)	-0.94	migration z between -2 and 2; enough cells	6042	inactive
40	RIPPLY3 (ripply transcriptional repressor 3)	-0.04	migration z between -2 and 2; enough cells	5222	inactive
41	NLRP12 (NLR family pyrin domain containing 12)	-0.34	migration z between -2 and 2; enough cells	6366	inactive
42	GRINA	-1.17	migration z between -2 and 2; enough cells	5474	inactive
43	JADE2 (jade family PHD finger 2)	0.8	migration z between -2 and 2; enough cells	5820	inactive
44	DCTN1 (dynactin subunit 1)	-0.48	migration z between -2 and 2; enough cells	5397	inactive
45	FNBP1 (formin binding protein 1)	1.12	migration z between -2 and 2; enough cells	5548	inactive
46	KCNA6 (potassium voltage-gated channel subfamily A member 6)	0.2	migration z between -2 and 2; enough cells	5060	inactive
47	CT47A2 (cancer/testis antigen family 47 member A2)	-2.44	migration z below -2; enough cells	5108	active
48	METTL25 (methyltransferase like 25)	0.26	migration z between -2 and 2; enough cells	6508	inactive
49	MRPL20 (mitochondrial ribosomal protein L20)	-0.15	migration z between -2 and 2; enough cells	5764	inactive
50	MRGPRF (MAS related GPR family member F)	-0.02	migration z between -2 and 2; enough cells	5222	inactive
51	CYP1B1 (cytochrome P450 family 1 subfamily B member 1)	0.32	migration z between -2 and 2; enough cells	6549	inactive
52	ADGRB3 (adhesion G protein-coupled receptor B3)	-0.24	migration z between -2 and 2; enough cells	4893	inactive
53	ERP44 (endoplasmic reticulum protein 44)	-0.52	migration z between -2 and 2; enough cells	5255	inactive
54	NABP2 (nucleic acid binding protein 2)	-0.76	migration z between -2 and 2; enough cells	6436	inactive
55	ZNF648 (zinc finger protein 648)	1.19	migration z between -2 and 2; enough cells	5562	inactive
56	PCED1A (PC-esterase domain containing 1A)	-0.28	migration z between -2 and 2; enough cells	6961	inactive
57	UBE3D (ubiquitin protein ligase E3D)	0.6	migration z between -2 and 2; enough cells	5474	inactive

5 neighbouring reagents already listed:
no.	Gene	migration robust z-score	migration class with cell-count check	nuclei per well, duplicate mean	Outcome
52	ADGRB3 (adhesion G protein-coupled receptor B3)	-0.24	migration z between -2 and 2; enough cells	4893	inactive
53	ERP44 (endoplasmic reticulum protein 44)	-0.52	migration z between -2 and 2; enough cells	5255	inactive
54	NABP2 (nucleic acid binding protein 2)	-0.76	migration z between -2 and 2; enough cells	6436	inactive
55	ZNF648 (zinc finger protein 648)	1.19	migration z between -2 and 2; enough cells	5562	inactive
56	PCED1A (PC-esterase domain containing 1A)	-0.28	migration z between -2 and 2; enough cells	6961	inactive
